# Experiment: peptide synthesis
# Conditions: conjugation step
row,Substance,conjugation yield
1,DBCO-E[c(RGDfK)]2,21.7%
2,NODAGA-LacN-E[c(RGDfK)]2,35%
